# Out of some 390,000 compounds screened, about 760 (0.19%) were called active. Inconclusive means that the source gave no clear call. Such entries were picked first, then a sample of the others. Calls follow the shape of the dose curve; as a rule, active = well fitted inhibition curve with a large enough effect; inconclusive = small, poorly fitted or top-dose-only effect; inactive = flat fitted curve, though single readings scatter. Potencies of inconclusive entries are doubtful fits and often do not repeat.
# Test: qHTS for Inhibitors of Vif-A3F Interactions: qHTS; also: nearly all actives have a fitted effect of over 65% in size
# Conditions: HeLa A3F-eYFP + Vif (tagged APOBEC3F with the HIV-1 protein that degrades it), YFP fluorescence increase; series mostly up to 46.1 µM
# Outline: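 HeLa cells stably expressing A3F-eYFP plus Vif, plated and incubated overnight at 37 deg C, then exposed to compounds overnight at 37 deg C. Blocked degradation read as raised yellow fluorescence (Ex 488/Em 500-530).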
# Potency is read from the fitted curve at half-maximal effect.
row,Structure (SMILES),Potency
1,COc1ccc(S(=O)(=O)NCCN2CCOCC2)c(C)c1C,"inconclusive: 5.62 µM [inhibitor, single point]"
2,COc1ccc(OCC(=O)N/N=C/C(C)=C/c2ccco2)c(Br)c1,"inconclusive: 35.5 µM [inhibitor, single point]"
3,O=C(NC(=S)Nc1ccc(S(=O)(=O)N2CCCCC2)cc1)c1cccs1,"inconclusive: 6.31 µM [inhibitor, single point]"
4,C/C(=N/NC(=O)c1cc(-c2ccccc2)nc2c(Cl)cccc12)c1cccnc1,"inconclusive: 2 µM [inhibitor, partial curve, poor fit]"
5,N#CCSc1nnc(Cc2cccc3ccccc23)n1C1CCCCC1,inactive
6,O=C(N/N=C/C(Br)=C\c1ccccc1)c1ccco1,"inconclusive: 35.5 µM [inhibitor, single point]"
7,O=C(COC(=O)c1cc2ccccc2cc1O)NC(=O)NCc1ccco1,"inconclusive: 31.6 µM [inhibitor, single point]"
8,CCCCSc1cc(C)nc(N)n1,"inconclusive: 35.5 µM [inhibitor, single point]"
9,CC(=O)c1ccc(Nc2ccc(-c3ccccc3F)nn2)cc1,"inconclusive: 39.8 µM [inhibitor, partial curve, poor fit]"
10,COc1ccc2[nH]c(=O)c(C(=O)O)cc2c1,"inconclusive: 2.82 µM [inhibitor, partial curve, poor fit]"
11,O=C(Nc1ccccc1)c1ccc(NCCc2ccccc2)c([N+](=O)[O-])c1,"inconclusive: 17.8 µM [inhibitor, partial curve, poor fit]"
12,CC1(C)CNc2cc(N)ccc2S1,"inconclusive: 22.4 µM [inhibitor, single point]"
13,CC(=O)Nc1ccc(NC(=O)C2CCCN2C(=O)NC2CCCCC2)cc1 (configuration not stated),"inconclusive: 5.62 µM [inhibitor, single point]"
14,CCOC(=O)N1CCC(Nc2nc3ccccc3nc2NS(=O)(=O)c2ccc(Cl)cc2)CC1,active: 31.6 µM
15,Cc1ccc(C(=O)c2cn(CC(=O)Nc3ccc4c(c3)OCCO4)c3nc(C)ccc3c2=O)cc1,"inconclusive: 31.6 µM [inhibitor, single point]"
16,COc1ccc(-c2cc(C(=O)Nc3cc(OC)cc(C(=O)Nc4cccc(C(F)(F)F)c4)c3)[nH]n2)cc1,"inconclusive: 17.8 µM [inhibitor, single point]"
17,CC1C2CC(CC1(C)C)N(C(=O)Nc1ccc3nccnc3c1)C2 (configuration not stated),"inconclusive: 11.2 µM [inhibitor, partial curve, poor fit]"

# Reprinted at random: two compounds from above
row,Structure (SMILES),Potency
16,COc1ccc(-c2cc(C(=O)Nc3cc(OC)cc(C(=O)Nc4cccc(C(F)(F)F)c4)c3)[nH]n2)cc1,"inconclusive: 17.8 µM [inhibitor, single point]"
2,COc1ccc(OCC(=O)N/N=C/C(C)=C/c2ccco2)c(Br)c1,"inconclusive: 35.5 µM [inhibitor, single point]"

# Reference: PubChem BioAssay AID602313 (National Center for Advancing Translational Sciences (NCATS), 2012)
